Residue numbers refer to the chain shown, from its start. Names may count otherwise. Results are given in words; binding and its absence hold for the method and conditions named. For some of these results: In cells and extracts the contact can be indirect. Some entries that bind do so weakly or less than the wild type. For some of these results: Where a sequence is shown, tags or fusion partners need not be part of it.
Key:
QseG-Strep [1] = target: T1, QseG-Strep (E. coli K-12, UniProt P0AD44 26-237, Cys26 predicted by the paper to be lipidated); assay: pull-down; ligand fishing by StrepTactin affinity chromatography; Strep-tagged bait made from a plasmid (1 mM IPTG, 1 h) in E. coli cells that carry the 3×FLAG-tagged prey on the chromosome; lysates on StrepTactin, eluates by Western blot with anti-FLAG antiserum
T1 sequence (looked up): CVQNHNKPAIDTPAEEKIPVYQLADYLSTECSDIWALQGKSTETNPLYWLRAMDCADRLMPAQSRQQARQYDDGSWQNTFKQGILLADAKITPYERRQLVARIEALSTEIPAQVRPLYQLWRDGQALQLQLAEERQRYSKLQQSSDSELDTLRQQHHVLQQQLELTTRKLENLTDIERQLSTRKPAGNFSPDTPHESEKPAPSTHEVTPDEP

QseG-Strep [2] = target: T1, QseG-Strep; assay: pull-down; bait and prey from two compatible plasmids in E. coli Z970 (1 mM IPTG, 0.2% arabinose, 3 h); cleared lysates with MagStrep type3 XT beads 60 min at 4°C, washed 4× with buffer W; Western blot
[3] = target: T2, T18-TM_(oppB)-QseG (E. coli K-12) (UniProt P0AD44); assay: two-hybrid; modified BACTH for periplasmic interactions: T18-TM_(oppB) fusion against T25 fusion in E. coli BTH101, 28°C, LB with 1 mM IPTG, β-galactosidase activity of stationary-phase cells
T2 sequence: T1 sequence (looked up)

[4] = target: PhoQ (T25 fusion) (E. coli K-12) (UniProt P23837); assay: two-hybrid; BACTH for homodimerisation: T18 fusion against T25 fusion of the kinase in E. coli BTH101, 28°C, LB with 1 mM IPTG, β-galactosidase activity of stationary-phase cells
T25-QseE (E. coli K-12) = target: T3, T25-QseE (E. coli K-12) (UniProt P52101); assay: as above
T3 sequence: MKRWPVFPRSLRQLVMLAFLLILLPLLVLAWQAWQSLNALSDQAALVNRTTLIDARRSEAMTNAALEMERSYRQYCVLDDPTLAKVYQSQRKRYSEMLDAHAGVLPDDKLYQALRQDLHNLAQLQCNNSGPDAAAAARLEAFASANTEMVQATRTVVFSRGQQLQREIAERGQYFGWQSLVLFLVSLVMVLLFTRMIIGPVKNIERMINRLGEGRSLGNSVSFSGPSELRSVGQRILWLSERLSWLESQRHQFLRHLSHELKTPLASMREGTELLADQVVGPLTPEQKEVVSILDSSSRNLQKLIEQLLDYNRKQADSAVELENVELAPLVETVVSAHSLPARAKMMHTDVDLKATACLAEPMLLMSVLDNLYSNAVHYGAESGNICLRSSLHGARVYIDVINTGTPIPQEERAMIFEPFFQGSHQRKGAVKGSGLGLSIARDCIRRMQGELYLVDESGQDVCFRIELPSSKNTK

[5] = target: T4, CpxA (T25 fusion) (E. coli K-12), P0AE82; assay: as above; conditions: remark: other sources report otherwise
T4 chain: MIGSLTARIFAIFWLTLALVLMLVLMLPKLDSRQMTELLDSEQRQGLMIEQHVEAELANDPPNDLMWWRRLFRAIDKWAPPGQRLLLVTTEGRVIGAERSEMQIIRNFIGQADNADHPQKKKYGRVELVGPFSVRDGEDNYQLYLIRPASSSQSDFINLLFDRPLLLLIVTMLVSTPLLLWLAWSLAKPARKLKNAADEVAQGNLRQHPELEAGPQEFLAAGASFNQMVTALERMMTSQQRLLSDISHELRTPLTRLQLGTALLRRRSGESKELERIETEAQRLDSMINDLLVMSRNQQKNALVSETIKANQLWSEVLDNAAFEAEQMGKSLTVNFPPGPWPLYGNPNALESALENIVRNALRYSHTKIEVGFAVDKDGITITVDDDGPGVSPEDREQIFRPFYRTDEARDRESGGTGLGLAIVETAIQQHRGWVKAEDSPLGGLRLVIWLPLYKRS

B1: QseE-3×FLAG (protein, UniProt P52101 1-475)
chain: T3 sequence
B1 was tested, and the binding (QseG-Strep [1]) was “binds” and the binding (QseG-Strep [2]) was “binds”.

B2: PhoQ (T25 fusion) (protein, UniProt P23837 1-486)
chain: MKKLLRLFFPLSLRVRFLLATAAVVLVLSLAYGMVALIGYSVSFDKTTFRLLRGESNLFYTLAKWENNKLHVELPENIDKQSPTMTLIYDENGQLLWAQRDVPWLMKMIQPDWLKSNGFHEIEADVNDTSLLLSGDHSIQQQLQEVREDDDDAEMTHSVAVNVYPATSRMPKLTIVVVDTIPVELKSSYMVWSWFIYVLSANLLLVIPLLWVAAWWSLRPIEALAKEVRELEEHNRELLNPATTRELTSLVRNLNRLLKSERERYDKYRTTLTDLTHSLKTPLAVLQSTLRSLRSEKMSVSDAEPVMLEQISRISQQIGYYLHRASMRGGTLLSRELHPVAPLLDNLTSALNKVYQRKGVNISLDISPEISFVGEQNDFVEVMGNVLDNACKYCLEFVEISARQTDEHLYIVVEDDGPGIPLSKREVIFDRGQRVDTLRPGQGVGLAVAREITEQYEGKIVAGESMLGGARMEVIFGRQHSAPKDE
With B2 the binding [3] was “no binding” and the binding [4] was “binds”.

B3: QseE-S58N-3×FLAG (natural protein, E. coli K-12, UniProt P52101 1-475, looked up)
chain: T3 sequence with S58N
notes: Histidine kinase QseE of E. coli K-12 with the S58N exchange in the periplasmic loop; also called QseE-S58N variant; source: E. coli strain Z970, from plasmid pYG318-S58N, in lysate; not shown: 3×FLAG, C-terminal, kept
With B3 the binding [3] was “binds” and the binding (T25-QseE (E. coli K-12)) was “binds”.

B4: T25-QseE (protein, UniProt P52101 1-475)
chain: T3 sequence
For B4, the binding [3] was “binds” and the binding (T25-QseE (E. coli K-12)) was “binds”.

B5: CpxA (T25 fusion), P0AE82 1-457 (protein)
chain: T4 chain
In the case of B5, the binding [5] is reported as “binds”.

B6: PhoQ-3×FLAG (protein, UniProt P23837 1-486)
chain: B2 chain
In the case of B6, the binding (QseG-Strep [1]) is reported as “no binding”.

B7: CpxA (T25 fusion) (protein, UniProt P0AE82 1-457)
chain: T4 chain
B7 was tested, and the binding [3] was “no binding”.

B8: QseENTD (T25 fusion) (domain or fragment, UniProt P52101 1-250)
chain: MKRWPVFPRSLRQLVMLAFLLILLPLLVLAWQAWQSLNALSDQAALVNRTTLIDARRSEAMTNAALEMERSYRQYCVLDDPTLAKVYQSQRKRYSEMLDAHAGVLPDDKLYQALRQDLHNLAQLQCNNSGPDAAAAARLEAFASANTEMVQATRTVVFSRGQQLQREIAERGQYFGWQSLVLFLVSLVMVLLFTRMIIGPVKNIERMINRLGEGRSLGNSVSFSGPSELRSVGQRILWLSERLSWLESQR
For B8, the binding [3] was “no binding”.

B9: T25-QseE-M5 (protein, UniProt P52101 1-475)
chain: T3 sequence with F19L, L21H, I22R, L23P, L24P
With B9 the binding [3] was “no binding”.

Reference: publication PMC6075780, “Interaction of lipoprotein QseG with sensor kinase QseE in the periplasm controls the phosphorylation state of the two-component system QseE/QseF in Escherichia coli” (PLoS Genetics, 2018)
